PubChem BioAssay AID686937 – Drosophila RNAi Screening Center – 2013
Purpose: 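Genes in the fly needed for secretion of protein constitutively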 (primary screen). System: Drosophila S2 cells expressing secreted horseradish peroxidase. Reagents: long dsRNA against Drosophila genes. Duration: about 5.5 days (5 days dsRNA, then 12 h reporter induction). Conditions: reporter expression induced after 5 days of dsRNA, read 12 h later; inducer not stated. Detection: 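After 5 days of dsRNA and 12 h of reporter induction, medium peroxidase read by chemiluminescence and scored as per-plate z-score; higher values mean more reporter released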. Reading the numbers: z-score: higher = more reporter secreted into medium.
In all, the deposit lists about 23,000 reagents; shown is a random part of those that have a named target and a result. 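Reduced-secretion tags in replicate 1 do not always agree with the z-scores; no criterion for assigning the tags was given.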 Names joined by + are all predicted targets of the reagent. No sequences are given here. Not given: the amount of reagent.

no.	gene	dsRNA	z-score, replicate 1	z-score, replicate 2	z-score, replicate 3	z-score, replicate 4	phenotype, replicate 1
1	CG11241	DRSC11641	-0.01	0.08	0.32	-0.12	
2	CG11241	DRSC22165	-0.97	0.13			
3	CG6195	DRSC15989	0.39	0.57			
4	dpr14	DRSC17767	0.23	0.16			
5	CG34269	DRSC07884	0.07	0.38			
6	CG3862	DRSC00631	0.4	0.39			
7	Pof	DRSC04405	0.31	0.25			
8	CG31373	DRSC16052	0.3	-1.14			
9	Hecw	DRSC18261	0.44	0.56			
10	Hecw	DRSC18276	0.35	0.77			
11	IntS9	DRSC10493	0.47	0.39			
12	CG9876	DRSC04586	0.16	0.36			
13	CG11112	DRSC06038	0.16	0.12			
14	CG8112	DRSC16377	0.34	0.18			
15	lncRNA:CR34024	DRSC13734	0.23	0.52			
16	CG17107	DRSC02575	0.44	0.03	0.08	-0.04	
17	CG17107	DRSC22627	-0.68	-0.44			
18	CG14767	DRSC06500	0.2	0.27			
19	CG18327	DRSC06722	0.4	-0.22			
20	CG13135	DRSC02232	-0.58	-0.04			
21	janA	DRSC16972	0.13	-0.01			
22	grh	DRSC05680	0.43	0.38			
23	grh	DRSC05683	-1.55	-1.4			reduced secretion
24	grh	DRSC07624	0.16	0.23			
25	grh	DRSC07625	-0.05	0.07			
26	dysf	DRSC14529	0.29	0.28			
27	dysf	DRSC14895	-1.02	-0.78			
28	dysf	DRSC14896	0.25	0.19			
29	dysf	DRSC14897	-4.56	-1.79			reduced secretion
30	RhoGAP102A	DRSC17110	0.35	0.15			
31	RhoGAP102A	DRSC17145	0.48	0.48			
32	CG7362	DRSC16236	0.12	0.6	0.69	1.04	
33	Uxs	DRSC10941	-1.3	-1.36			
34	faf	DRSC16942	0.47	0.39			
35	scat	DRSC02722	0.29	0.36			
36	t-cup	DRSC01254	0.15	-0.21			
37	eIF4B	DRSC20983	0.15	0.03			
38	CG5435	DRSC02860	0.02	-0.02			
39	CG8142	DRSC20086	0.13	0.28			
40	Stat92E	DRSC16870	0.18	0.19			
41	CG15756	DRSC19721	0.01	-0.26			
42	Gr59c	DRSC04185	0.09	0.32			
43	KLHL18	DRSC15496	0.15	0.33			
44	CG42565	DRSC04154	0.04	0.04			
45	CG4622	DRSC04479	-0.32	-0.04			
46	CG34041	DRSC22276	-0.2	-1.52			reduced secretion
47	CG9394	DRSC04550	0.01	0.19			
48	CG31516	DRSC11994	0.45	0.34			
49	CHES-1-like	DRSC18447	0.4	0.53			
50	CG33791 + CG18170	DRSC08523	0.45	0.35			
51	CG33791 + CG18170	DRSC08601	0.34	0.27			
52	Seipin	DRSC18654	0.12	0.28			
53	Alp2	DRSC04354	0.25	0.29			
54	CanA1	DRSC16600	0.35	0.13			
55	Grik	DRSC15846	0.51	0.35			
56	Grik	DRSC15847	0.18	0.05			
57	Marcal1	DRSC02718	-0.31	0.1			
58	CG1387	DRSC17904	0.41	0.53			
59	CG4835	DRSC10452	-4.46	-4.15			reduced secretion
60	oaf	DRSC00831	0.32	0.36			
61	Kdsr	DRSC14245	0.69	0.42			
62	CG4328	DRSC10410	-2.2	-1.75			reduced secretion
63	Ehbp1	DRSC06561	0.33	0.25			
64	Samuel	DRSC02156	0.26	0.24			
65	Samuel	DRSC02401	0.2	-0.47			
66	Samuel	DRSC02402	-0.07	0.45			
67	Samuel	DRSC21731	-0.77	-0.29			
68	CG14478	DRSC06450	0.24	0.23			
69	CG31808	DRSC22962	0.09	0.04			
70	CG31161	DRSC16144	-2.02	0.52			reduced secretion
71	CG31097	DRSC14666	0.14	0.31			
72	CG17249	DRSC08517	0.11	0.18			
73	mh	DRSC20168	0.14	0.14			
74	Psf2	DRSC00516	0.27	-0.1			
75	CG5446	DRSC02862	-1.12	-0.42			
76	Alms1a	DRSC18558	0.33	0.05			
77	hkb	DRSC12377	-0.12	0.05	-0.83	-0.06	
78	CG31740	DRSC01619	0.33	0.04			
79	CG4293	DRSC18557	0.24	0.13			
80	CG9459	DRSC16496	0.2	0.6			
81	Rab19	DRSC11260	-0.23	-0.1			
82	nudC	DRSC11096	0.5	0.46			
83	nudC	DRSC11097	0.22	0.23			
